Laboratory results: PubChem BioAssay AID1259290 (Sanger Institute, 2017)
Assay: 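siRNA screen across the kinome seeking synthetic lethal partners for BYL719, cetuximab or trametinib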 (primary screen). Cell system: human SNUC1 colorectal cancer cells. Knock-down reagent: siRNA pool against human genes. Treatment: anchor drugs BYL719 1 µM, cetuximab 5 µg/ml or trametinib 10 nM, or DMSO vehicle alone. Read-out: 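Cell viability relative to a non-targeting siRNA control, replicate-averaged, as robust z-score for knock-down alone, plus a synergy score for each anchor drug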. Direction: viability z-score, siRNA alone: higher = more viable cells; low values mean essential gene. Active means: 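Essential when the robust viability z-score with siRNA alone falls below -3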. Meaning of the calls: active = essential: knock-down alone cut viability (z below -3); inactive = no clear viability loss with knock-down alone.
This is one part, drawn at random, of 794 deposited reagents. 9 of them (1.1%) were called active. 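Calls rest on knock-down alone, not drug synergy; synergy above 0.15 was grouped apart and does not affect calls.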 Further read-outs or replicates are left out here. Reagent sequences are not shown. Not given: the amount of reagent, the time to read-out.

The opening 4 records, ahead of the listing:
viability z-score, siRNA alone	activity call	Target gene
-3.37	active	CSNK1G1 (casein kinase 1 gamma 1)
-1.65	inactive	CNOT1 (CCR4-NOT transcription complex subunit 1)
-0.219	inactive	LMBR1 (limb development membrane protein 1)
0.19	inactive	PCBP1 (poly(rC) binding protein 1)

Results, from the first entry:
viability z-score, siRNA alone	activity call	Target gene
-3.37	active	CSNK1G1 (casein kinase 1 gamma 1)
-1.65	inactive	CNOT1 (CCR4-NOT transcription complex subunit 1)
-0.219	inactive	LMBR1 (limb development membrane protein 1)
0.19	inactive	PCBP1 (poly(rC) binding protein 1)
0.256	inactive	BRD2 (bromodomain containing 2)
-1.67	inactive	GRK7 (G protein-coupled receptor kinase 7)
0.471	inactive	PEAK1 (pseudopodium enriched atypical kinase 1)
-3.03	active	RIOK3 (RIO kinase 3)
0.929	inactive	HIPK4 (homeodomain interacting protein kinase 4)
0.444	inactive	CDK6 (cyclin dependent kinase 6)
0.936	inactive	GUCY2EP (guanylate cyclase 2E, pseudogene)
-0.927	inactive	PAK6 (p21 (RAC1) activated kinase 6)
0.936	inactive	AURKC (aurora kinase C)
0.44	inactive	NEK8 (NIMA related kinase 8)
-1.02	inactive	MAST1 (microtubule associated serine/threonine kinase 1)
-0.586	inactive	ADPGK (ADP dependent glucokinase)
0.458	inactive	CLK3 (CDC like kinase 3)
0.275	inactive	IP6K2 (inositol hexakisphosphate kinase 2)
0.584	inactive	TRIB2 (tribbles pseudokinase 2)
-0.555	inactive	CIB2 (calcium and integrin binding family member 2)
0.936	inactive	TLK2 (tousled like kinase 2)
0.491	inactive	AGK (acylglycerol kinase)
0.731	inactive	PSKH2 (protein serine kinase H2)
0.131	inactive	IRAK2 (interleukin 1 receptor associated kinase 2)
0.39	inactive	EPHB1 (EPH receptor B1)
0.304	inactive	AK7 (adenylate kinase 7)
-0.711	inactive	CSNK1A1 (casein kinase 1 alpha 1)
-0.987	inactive	PFKL (phosphofructokinase, liver type)
0.936	inactive	DIS3 (DIS3 exosome endoribonuclease and 3'-5' exoribonuclease)
0.936	inactive	TTK (TTK protein kinase)
-1.69	inactive	AURKB (aurora kinase B)
-0.383	inactive	EPHB2 (EPH receptor B2)
-1.4	inactive	PRKAG3 (protein kinase AMP-activated non-catalytic subunit gamma 3)
0.195	inactive	CDK5 (cyclin dependent kinase 5)
